{"source": "patent US11896615B2", "about": "“Immunotherapy methods and compositions involving tryptophan metabolic pathway modulators” (Juno Therapeutics, Inc., priority 2016, dated 2024)", "system": "CD19.A549 cells", "assay": "Effect of fludarabine on IDO1 expression, viability and apoptosis of tumor cells", "assay_type": "cell-based, human", "key": {"[1]": {"conditions": "higher doses, after 24 or more hours in culture"}}, "note": "At least one compound was matched to its structure with a doubt left."}
{"smiles": "Nc1nc(F)nc2c1ncn2[C@@H]1O[C@H](CO)[C@@H](O)[C@@H]1O", "note": "[fludarabine]", "values": [{"measurement": "cell viability", "setting": "24 hours of treatment", "value": "did not substantially affect the viability"}, {"measurement": "apoptosis (Annexin V)", "setting": "[1]", "value": "increased apoptosis"}, {"measurement": "cell viability", "setting": "[1]", "value": "decreased cell viability"}, {"measurement": "IDO1 levels (MFI)", "setting": "increasing concentrations added after 24 hours, with or without IFNγ", "value": "reduced IDO1 levels in a dose-dependent manner"}, {"measurement": "IDO1 expression levels over time", "setting": "lower doses, IFNγ-stimulated CD19.A549 cells", "value": "not to affect IDO1 expression levels"}]}
